# The list shows a part of the results.
# Compound: CC1Cc2ccccc2N1C(=O)C1CCCN(C1)C(=O)CCl (mixture of isomers) [TRIM25 ligand 11 (diastereomer mixture)]
# Assay: probe-labelled cysteine peptide fold change vs DMSO (competition) (log2 fold change); higher = less target engagement (more negative = stronger competition)
# Conditions: 10 µM; THP-1; incubation time: 4 h
# 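Further: competitive chemoproteomic profiling in live THP-1 cells with an iodoacetamide desthiobiotin (IA-DTB) probe, comparing probe-labelled peptide intensities in compound-treated cells against DMSO-treated controls.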
row,Target,probe-labelled cysteine peptide fold change
1,BCR_P11274_886_SFSLTSVELQMLTNSCVK (UniProt P11274),0.0219
2,BOD1L1_Q8NFC6_1618_EGESGECAVAESEDR (UniProt Q8NFC6),-0.0437
3,ATRX_P46100_1718_ALVDPGPDFVVCDEGHILK (UniProt P46100),0.145
4,BLOC1S6_Q9UL45_95_ECHSMLDINALFAEAK (UniProt Q9UL45),0.0396
5,B4GAT1_O43505_146_EEAQLATVLAYALSSHCPDMR (UniProt O43505+B4GAT1),-0.0228
6,BIRC2_Q13490_315_CWESGDDPWVEHAK (UniProt Q13490),0.127
7,ATXN10_Q9UBB4_65_SSHAVELACRDPSQVENLASSLQLITECFR (UniProt Q9UBB4),0.141
8,BDH1_Q02338_86_GFLVFAGCLMK (UniProt Q02338),-0.242
9,AURKA_O14965_393_EVLEHPWITANSSKPSNCQNK (UniProt O14965),-0.187
10,B2M_P61769_45_SNFLNCYVSGFHPSDIEVDLLK (UniProt P61769),0.0228
11,ATXN10_Q9UBB4_382_LIGNLCYK (UniProt Q9UBB4),-0.0223
12,BOP1_Q14137_108_TTEEQVQASTPCPR (UniProt Q14137),-0.161
13,BAG2_O95816_162_FQSIVIGCALEDQKK (UniProt O95816),-0.201
14,ATXN7L3_Q14CW9_226_CPQHTDEQRR (UniProt Q14CW9),-0.0529
15,BCAR3_O75815_408_GSDSQLCPKPPPKPCK (UniProt O75815),-0.138
16,BAHD1_Q8TBE0_764_TVPEDTDPELVFLCR (UniProt Q8TBE0),0.0489
17,BDH2_Q9BUT1_145_CVYSTTK (UniProt Q9BUT1),-0.167
18,B4GALT1_P15291_172_DCVSPHK (UniProt P15291),-0.0797
19,BCL10_O95999_57_ILSREDTEEISCR (UniProt O95999),-0.111
20,BDH2_Q9BUT1_93_LDVLFNVAGFVHHGTVLDCEEK (UniProt Q9BUT1),0.228
21,BCLAF1_Q9NYF8_688_CDSADLR (UniProt Q9NYF8),-0.0386

# Same assay, conditions: 50 µM; THP-1; incubation time: 4 h
row,Target,probe-labelled cysteine peptide fold change
1,BAZ1A_Q9NRL2_404_PREDMECDDLK (UniProt Q9NRL2),-0.16
2,BPGM_P07738_23_FCSWVDQK (UniProt P07738),-0.12
3,ATRX_P46100_220_DSDGMDEQCR (UniProt P46100),0.07
4,BABAM2_Q9NXR7_245+254_IEHALGGSSALHIPAFPGGGCLIDYVPQVCHLLTNK (UniProt Q9NXR7),-0.133
5,BOD1L1_Q8NFC6_2694_NGEILAPPESLCGGKPSGIAELQR (UniProt Q8NFC6),-0.158
6,BIRC6_Q9NR09_4813+4828_LPCPEGLDPDTDDAPEVCR (UniProt Q9NR09),-0.0936
7,BAZ2A_Q9UIF9_1037_SEVEMEGPEECLGR (UniProt Q9UIF9),-0.201
8,BIRC6_Q9NR09_566_HQEQHNIPFPCLLAGGLLTYK (UniProt Q9NR09),-0.124
9,BAZ1A_Q9NRL2_893+898_WCFYSSCEQLDQLIEALNSR (UniProt Q9NRL2),-0.174
10,BCAT1_P54687_338_EMFGSGTACVVCPVSDILYK (UniProt P54687),0.0428
11,ATXN10_Q9UBB4_134_CGLQFLGNIASR (UniProt Q9UBB4),0.534
12,BPTF_Q12830_1241_EGCQSDSMR (UniProt Q12830),-0.137
13,BAZ1B_Q9UIG0_1213_AFHLFCLR (UniProt Q9UIG0),-0.0252
14,AZI2_Q9H6S1_10_MDALVEDDICILNHEK (UniProt Q9H6S1),-0.142
15,BAZ1B_Q9UIG0_1348_CEEILHK (UniProt Q9UIG0),-0.00188
16,AURKB_Q96GD4_191_TATIMEELADALMYCHGKK (UniProt Q96GD4),-0.0919
17,BCR_P11274_886_SFSLTSVELQMLTNSCVK (UniProt P11274),0.037
18,BOD1L1_Q8NFC6_1618_EGESGECAVAESEDR (UniProt Q8NFC6),-0.13
19,ATRX_P46100_1718_ALVDPGPDFVVCDEGHILK (UniProt P46100),0.0955

row,Target,probe-labelled cysteine peptide fold change
1,BLOC1S6_Q9UL45_95_ECHSMLDINALFAEAK (UniProt Q9UL45),0.0528
2,B4GAT1_O43505_146_EEAQLATVLAYALSSHCPDMR (UniProt O43505+B4GAT1),-0.0192
3,BIRC2_Q13490_315_CWESGDDPWVEHAK (UniProt Q13490),0.0958
4,ATXN10_Q9UBB4_65_SSHAVELACRDPSQVENLASSLQLITECFR (UniProt Q9UBB4),-0.101
5,BDH1_Q02338_86_GFLVFAGCLMK (UniProt Q02338),0.0199
6,AURKA_O14965_393_EVLEHPWITANSSKPSNCQNK (UniProt O14965),-0.235
7,B2M_P61769_45_SNFLNCYVSGFHPSDIEVDLLK (UniProt P61769),-0.192
8,ATXN10_Q9UBB4_382_LIGNLCYK (UniProt Q9UBB4),0.00768
9,BOP1_Q14137_108_TTEEQVQASTPCPR (UniProt Q14137),-0.298
10,BAG2_O95816_162_FQSIVIGCALEDQKK (UniProt O95816),0.038
11,ATXN7L3_Q14CW9_226_CPQHTDEQRR (UniProt Q14CW9),0.0377
12,BCAR3_O75815_408_GSDSQLCPKPPPKPCK (UniProt O75815),-0.272
13,BAHD1_Q8TBE0_764_TVPEDTDPELVFLCR (UniProt Q8TBE0),0.0905
14,BDH2_Q9BUT1_145_CVYSTTK (UniProt Q9BUT1),-0.196
15,B4GALT1_P15291_172_DCVSPHK (UniProt P15291),-0.0194
16,BCL10_O95999_57_ILSREDTEEISCR (UniProt O95999),0.00715
17,BDH2_Q9BUT1_93_LDVLFNVAGFVHHGTVLDCEEK (UniProt Q9BUT1),0.217
18,BCLAF1_Q9NYF8_688_CDSADLR (UniProt Q9NYF8),-0.103
